Measurements reported in PubChem BioAssay AID1053208 (Peter MacCallum Cancer Centre, 2014)
Here is an unselected part of about 17,000 deposited reagents. Over the whole deposit, 788 (4.7%) got an active call. 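Calls rest on z-score classes alone; an extra cut-off of viability at most 70% of control was not applied to them.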 Further read-outs or replicates are left out here.

Assay: 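Genes whose silencing cuts survival of bone tumour cells only with doxorubicin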 (primary screen)
Cell system: mouse osteosarcoma cells, early-passage culture from an engineered mouse model of fibroblastic bone tumour
Knock-down reagent: siRNA pool against mouse genes, 40 nM
Timing: about 120 h (48 h before drug, then 72 h with drug)
Conditions: doxorubicin 100 nM for 72 h, roughly 30-40% inhibitory dose
Measurement: 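Viability read as ATP luminescence after 72 h of 100 nM doxorubicin or none, duplicate wells averaged, scaled to non-targeting siRNA, then expressed as robust z-scores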
Direction: viability z-score with doxorubicin: higher = more viable cells under doxorubicin; viability z-score without drug: higher = more viable cells with knock-down alone
Active means: 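a pool counts as active when its viability z-score with doxorubicin is -2 or below and its z-score without drug lies between -2 and 2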

| gene symbol | combined z-score class | viability z-score with doxorubicin | viability z-score without drug | call |
| --- | --- | --- | --- | --- |
| Ybx1 (Y box protein 1) | no change with or without drug | 1.01 | 1.18 | inactive |
| Nnat (neuronatin) | no change with or without drug | -0.67 | -1.18 | inactive |
| Nnt (nicotinamide nucleotide transhydrogenase) | no change with or without drug | 0.9 | 0.17 | inactive |
| Kdm5a (lysine demethylase 5A) | no change with or without drug | -1.46 | -0.51 | inactive |
| Or9g4 (olfactory receptor family 9 subfamily G member 4) | no change with or without drug | -1.12 | -0.34 | inactive |
| Or4c122 (olfactory receptor family 4 subfamily C member 122) | high cell count without drug only | -0.9 | 2.87 | inactive |
| Tesmin (testis expressed metallothionein like) | no change with or without drug | -0.22 | -0.17 | inactive |
| Dmc1 (DNA meiotic recombinase 1) | no change with or without drug | 0.11 | -1.18 | inactive |
| Sin3b (transcriptional regulator, SIN3B (yeast)) | no change with or without drug | -0.45 | 0.17 | inactive |
| Degs2 (delta 4-desaturase, sphingolipid 2) | no change with or without drug | -0.79 | 0.51 | inactive |
| Pgp (phosphoglycolate phosphatase) | no change with or without drug | 0.34 | 1.52 | inactive |
| Or4f7 (olfactory receptor family 4 subfamily F member 7) | no change with or without drug | -0.67 | -0.17 | inactive |
| Gphr (golgi pH regulator) | no change with or without drug | 0.79 | -0.84 | inactive |
| Ncaph2 (non-SMC condensin II complex, subunit H2) | no change with or without drug | 0.9 | -0.51 | inactive |
| Galt (galactose-1-phosphate uridyl transferase) | no change with or without drug | 0 | -0.51 | inactive |
| Cmss1 (cms small ribosomal subunit 1) | no change with or without drug | 1.12 | 1.01 | inactive |
| 2410018L13Rik (RIKEN cDNA 2410018L13 gene) | high cell count with doxorubicin only | 2.59 | 1.85 | inactive |
| Foxn3 (forkhead box N3) | high cell count with and without drug | 2.92 | 2.19 | inactive |
| Sipa1l1 (signal-induced proliferation-associated 1 like 1) | no change with or without drug | 0.9 | 1.35 | inactive |
| Klhl10 (kelch-like 10) | no change with or without drug | -0.22 | 1.52 | inactive |
| Fkbp6 (FK506 binding protein 6) | no change with or without drug | 0.45 | -0.51 | inactive |
| Afg3l1 (AFG3-like AAA ATPase 1) | no change with or without drug | -0.34 | -0.17 | inactive |
| Tcta (T cell leukemia translocation altered gene) | no change with or without drug | -1.8 | -0.17 | inactive |
| Zfp143 (zinc finger protein 143) | no change with or without drug | 0.22 | 1.01 | inactive |
| Cstf2 (cleavage stimulation factor, 3' pre-RNA subunit 2) | no change with or without drug | 0.45 | 0.17 | inactive |
| Cd99 (CD99 antigen) | no change with or without drug | 1.12 | 1.18 | inactive |
| Pcdhb9 (protocadherin beta 9) | low cell count with doxorubicin only | -2.02 | -0.51 | active |
| Eif3f (eukaryotic translation initiation factor 3, subunit F) | low cell count with and without drug | -3.26 | -2.19 | inactive |
| Chrna5 (cholinergic receptor, nicotinic, alpha polypeptide 5) | no change with or without drug | -0.11 | -0.34 | inactive |
| Slx9 (SLX9 ribosome biogenesis factor) | no change with or without drug | -1.35 | -0.17 | inactive |

Sorted by “viability z-score with doxorubicin” (low to high): some entries from above
| gene symbol | combined z-score class | viability z-score with doxorubicin | viability z-score without drug | call |
| --- | --- | --- | --- | --- |
| Or4f7 (olfactory receptor family 4 subfamily F member 7) | no change with or without drug | -0.67 | -0.17 | inactive |
| Galt (galactose-1-phosphate uridyl transferase) | no change with or without drug | 0 | -0.51 | inactive |
| Pgp (phosphoglycolate phosphatase) | no change with or without drug | 0.34 | 1.52 | inactive |
| Gphr (golgi pH regulator) | no change with or without drug | 0.79 | -0.84 | inactive |
| Ncaph2 (non-SMC condensin II complex, subunit H2) | no change with or without drug | 0.9 | -0.51 | inactive |
| Cmss1 (cms small ribosomal subunit 1) | no change with or without drug | 1.12 | 1.01 | inactive |
| 2410018L13Rik (RIKEN cDNA 2410018L13 gene) | high cell count with doxorubicin only | 2.59 | 1.85 | inactive |

Continued:
| gene symbol | combined z-score class | viability z-score with doxorubicin | viability z-score without drug | call |
| --- | --- | --- | --- | --- |
| Krtap15-1 (keratin associated protein 15-1) | low cell count with doxorubicin only | -3.04 | -1.35 | active |
| Itgal (integrin alpha L) | no change with or without drug | -1.57 | -0.17 | inactive |
| Tdo2 (tryptophan 2,3-dioxygenase) | no change with or without drug | -1.8 | -0.51 | inactive |
| Il1r1 (interleukin 1 receptor, type I) | low cell count with doxorubicin only | -3.15 | -1.35 | active |
| Stbd1 (starch binding domain 1) | high cell count without drug only | 0 | 2.36 | inactive |
| Zfp653 (zinc finger protein 653) | no change with or without drug | -0.67 | 0.84 | inactive |
| Jagn1 (jagunal vesicle mediated transporter 1) | no change with or without drug | 0.22 | -0.17 | inactive |
| Plekhm3 (pleckstrin homology and RUN domain containing M3) | no change with or without drug | -0.67 | 0.84 | inactive |
| Uhrf2 (ubiquitin-like, containing PHD and RING finger domains 2) | no change with or without drug | 1.69 | 0.84 | inactive |
| Cdkn2b (cyclin dependent kinase inhibitor 2B) | no change with or without drug | 0 | 0 | inactive |
| Pdxk (pyridoxal (pyridoxine, vitamin B6) kinase) | no change with or without drug | -0.34 | -1.52 | inactive |
| Trir (telomerase RNA component interacting RNase) | no change with or without drug | -0.45 | -0.51 | inactive |
| Smc1a (structural maintenance of chromosomes 1A) | low cell count with and without drug | -3.04 | -2.19 | inactive |
| C2 (complement C2) | no change with or without drug | 1.8 | 0.84 | inactive |
| Ino80b (INO80 complex subunit B) | no change with or without drug | -0.22 | -1.18 | inactive |
| Nudt18 (nudix hydrolase 18) | no change with or without drug | 1.46 | 0.34 | inactive |
| Thada (thyroid adenoma associated) | no change with or without drug | 0.22 | 0.17 | inactive |
| Slc25a4 | no change with or without drug | -0.56 | -1.35 | inactive |
| Klk11 (kallikrein related-peptidase 11) | no change with or without drug | -1.24 | -0.17 | inactive |
| Taf7l (TATA-box binding protein associated factor 7 like) | no change with or without drug | -0.9 | -0.17 | inactive |
